Test results from PubChem BioAssay AID2685 (National Center for Advancing Translational Sciences (NCATS), 2010).
Some of the results follow. The main result of the screen is listed elsewhere. These columns were measured beside it and carry no call. Most of these compounds were active or inconclusive in the main read-out, so they are no random draw. Potencies come from curve fits of mixed quality, noted in brackets.

Assay: qHTS Assay for Lipid Storage Modulators in Drosophila S3 Cells;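 as to cell number change: cells counted by Cell Tracker Red CMTPX staining in the red channel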
Details: BODIPY lipid droplet fluorescence, 18-24 h; for cell number change: measured here: cell count max response, cells fed with added oleic acid
Method in brief: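 Laser-scanning cytometry quantifies lipid droplet accumulation (500–530 nm total intensity; droplet/cell object ratio) in oleic acid-fed (400 uM added) Drosophila S3 cells treated with a concentration series. 20 uM Triacsin C defined 100% inhibition.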

[1] = measured here: lipid fluorescence (Fed channel) AC50, cells fed with added oleic acid
[2] = measured here: cell number channel AC50, cells fed with added oleic acid

| SMILES | cell number change | AC50 [1] | AC50 [2] |
| --- | --- | --- | --- |
| CCOc1ccc(N(CC(=O)NCCc2ccccc2)C(=O)CCC(=O)Nc2cc(C)ccn2)cc1 | 2.56% | 6.51 µM [rising, partial curve] | – |
| C=CCN(CC=C)Cc1c(C)[nH]c2ccc(C(=O)OCC)cc2c1=O | -22.8% | – | 0.00461 µM [falling, full curve, poor fit] |
| COc1ccccc1NC(=O)COC(=O)/C=C/c1ccccc1[N+](=O)[O-] | -30.8% | – | 29.1 µM [falling, single point] |
| COc1ccc(CCN2CC(C(=O)Nc3cccc(C(C)=O)c3)CC2=O)cc1OC (stereo unspecified) | -16.2% | 0.00517 µM [falling, full curve, poor fit] | – |
| COc1ccc(N2CC(C(=O)N3CCN(Cc4ccc5c(c4)OCO5)CC3)CC2=O)cc1 (stereo unspecified) | -30.6% | 29.1 µM [falling, single point] | 7.31 µM [falling, partial curve, poor fit] |
| Cc1cc(C)nc(SCc2ccc(C(=O)N/N=C/c3cccc(O)c3O)cc2)n1 | -10.7% | 29.1 µM [falling, single point] | – |
| NC(=O)c1ccc(-c2csnn2)cc1 | – | 29.1 µM [rising, single point] | – |
| Cc1cccc(OCc2nnc(SCC(=O)N3c4ccccc4CC3C)n2C)c1C (stereo unspecified) | -52.5% | 14.6 µM [falling, partial curve] | 14.6 µM [falling, single point] |
| CN(Cc1ccco1)C(=O)CN1C(=O)NC2(CCCCC2)C1=O | -20.2% | 0.00461 µM [rising, full curve, poor fit] | – |
| O=C(OC1CCOC1=O)c1cc(-c2ccccc2)nc2ccccc12 (stereo unspecified) | 0.676% | – | 0.651 µM [falling, single point] |
| CCc1ccc(/C(C)=N/NS(=O)(=O)c2ccc(OC)cc2)s1 | – | 6.51 µM [falling, single point] | – |
| COc1ccc(NC(=O)c2ccccc2-c2ccc(C(F)(F)F)cc2)cc1S(=O)(=O)N1CCOCC1 | 25.6% | 14.6 µM [rising, partial curve] | – |
| Cc1ccc(NC(=O)NCCN2CCN(C(=O)Nc3ccc(C)cc3)CC2)cc1 | 2.63% | 0.794 µM [rising, partial curve, poor fit] | – |
| O=C(NCc1cccnc1)/C(=C/c1ccc(-c2cccc(Cl)c2)o1)S(=O)(=O)c1ccccc1 | -19.6% | 0.092 µM [rising, full curve, poor fit] | – |
| O=C(COC(=O)CCC(=O)c1cccs1)NCc1ccccc1 | -54.6% | 8.2 µM [falling, partial curve] | 3.66 µM [falling, full curve] |
